Library screening results

Source: ChEMBL document CHEMBL3988442, “University of Dundee, Small-Polar-MMV Screening Library” (2021).

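Whole-cell assay for inhibitors of Mycobacterium tuberculosis growth, labelled Cornell in the record; the read-out is not stated. The concentration is filed as 10 mM, unlikely as a test dose, so the dose is not known. Higher means stronger inhibition (inferred from two other growth screens of the library). About 53,000 compounds were tested under these conditions; 1.7% (about 900) showed 50% or more at least once.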

The filed quantity is “Percent Effect” (%). The controls that fix the scale are not given in the record; negative values are as filed. Compounds were drawn at random from those tested, without regard to their results.

structure	percent effect
CC(C)c1ccc(O)c(C(=O)N2CCN(Cc3cscn3)CC2)c1	25.76
Cc1nc(CNC(=O)NCC2(C)CCCc3ccccc32)no1 (centres undefined)	18.64
O=C(O)C(F)(F)F.[H][C@@]12CCN(Cc3c(C)noc3C)C[C@]1(C(=O)N1CCOCC1)CCO2	9.38
CC(C)c1ncncc1C(=O)NCCN1CCCCCC1	10.81
Cc1nn(C)c(N(C)C)c1CNCC(O)c1ccccc1F (centres undefined)	-4.565
CCN(C(=O)C(C)S(=O)(=O)Cc1nc(C)no1)c1ccccc1 (centres undefined)	13.44
Cc1cc(C)n(CC2CCCN2C(=O)c2c[nH]c3ncccc23)n1 (centres undefined)	-14.25
CC(C(=O)N1CCCCC1)N1CCN(c2ncc(Cl)cn2)CC1 (centres undefined)	17.5
CCc1ncc(C(=O)NC(C)(C)CC)s1	-2.951
COCCNc1c(C#N)c2c(c3nncn13)CN(C)CC2	37.35
CCOc1ccc(S(=O)(=O)NC(=O)c2c(C)noc2C(C)C)cc1	49.48
Cc1c(NC(=O)C(C)N(C)C)c(=O)n(-c2ccccc2)n1C (centres undefined)	-3.867
CCSc1nnc(N2CCN(c3ccccc3)CC2)s1	14.96
COCCNC(=O)Nc1cccc2c1CCN(S(C)(=O)=O)C2	0.9395
CC(NC(C)(C)CN)c1ccccc1 (centres undefined)	-11.3
CC(C)(C)CC(=O)Nc1ccccc1SCC(N)=O	-6.49
CS(=O)(=O)N1CCN(CC2CC2)c2ncccc2C1	6.594
CCN(C(=O)CN1CCn2c(C)nnc2C1)C1=CCCCC1	-8.496
O=C(O)c1ccn(-c2ccccc2NS(=O)(=O)c2ccccc2)n1	20.64
CS(=O)(=O)N1CCCC12CCCN(S(=O)(=O)c1ccc(F)cc1)C2 (centres undefined)	-19.89
[H][C@@]12C[C@H](C(=O)N3CCOCC3)[C@@]([H])(CN(C(=O)Nc3ccc(F)cc3)C1)O2	23.7
O=C(CN1CCCCC1Cn1cncn1)NCCOc1ccccc1 (centres undefined)	-3.961
COc1ccc(-n2cnc(Cl)c2CO)cc1	11.93
CC(C)Nc1ccc2nc(C3CCNCC3)nn2c1	5.24
O=C1NCCN(C(=O)c2cn3ccsc3n2)C1c1cccc(F)c1 (centres undefined)	-19.64
O=C(Nc1cccc(F)c1)NC1CCN(Cc2ccncc2)CC1	26.05
CN(C)CCCNC(=O)c1ccccc1NC(=O)c1cc(Cl)ccc1Cl	41.18
COCCCC(=O)NS(=O)(=O)c1ccc2c(c1)OCCCO2	25.31
CC1(NC(=O)Cc2csc(-c3ccccc3Cl)n2)CCS(=O)(=O)C1 (centres undefined)	12.49
COc1ccc(Br)cc1CCC(=O)N1CCCC(O)C1 (centres undefined)	2.453
O=C(O)[C@@H]1CN(C(=O)c2ccc(F)c(F)c2)C[C@H]1c1cccc(F)c1	-18.24
Cc1cccc(N(CC(=O)N2CCCCC2)C(=O)C2CCCO2)c1 (centres undefined)	17.42
CN(CC(=O)NC(C)(C)C)C(=O)C1CC(c2cccc(F)c2)=NO1 (centres undefined)	-25.95
[H][C@@]12COC[C@]1([H])[C@@H](OCC)CN2C(=O)c1ccc2c(c1)OCO2	3.72
CCOc1ncc(NC(=O)c2ccco2)c(OCC)n1	12.23
CC(C)N(C)C(=O)COc1ccc(-c2noc(C3CCCO3)n2)cc1 (centres undefined)	4.639
CN1CCN(Cc2c(Cl)ccc(O)c2Cl)CC1C(=O)O (centres undefined)	-80.61
CN(C)CCNc1ccc(-c2nc(COc3ccccc3)no2)cn1	16.69
CS(=O)(=O)N1CCN(Cc2ccc(F)cc2Br)CC1	31.68
O=C(Cc1cccs1)NCC(=O)Nc1cn[nH]c1	-9.555
Cc1nccn1CCCN1CCC2(CCC(=O)N(CC3CC3)C2)CC1	12.77
O=C1CC(c2ccc(C(=O)O)cc2)c2ncn(-c3ccccc3F)c2N1 (centres undefined)	-14.93
CC1(c2cc[nH]n2)CCN(C(=O)c2ccc(Cl)cc2)CC1	20.16
Cc1ccc(CN(Cc2cc(C)no2)C2CC2)cc1	14.25
CC(C)CCN1CCNC(=O)C1CC(=O)N1CCc2sccc2C1 (centres undefined)	20.63
CC1=C(C#N)C(=O)NC(=O)/C1=C\c1c(C)nn(-c2ccccc2)c1O	18.06
CC[C@@H](Cn1ncc2ccccc2c1=O)NC(=O)c1ccco1	-2.882
CCc1cnc(CN(C)C2CCN(CCc3ccccn3)C2)o1 (centres undefined)	-1.054
Cc1noc(C)c1CCC(=O)N1CCN(CCn2cncn2)CC1	14.5
Cc1nc(C)c2c(n1)CCN(C(=O)C1(C#N)CC1)CC2	-24.25
O=C(NCc1ccccc1CN1CCCC1=O)Nc1nccs1	-63.8
CCC(=O)N1CCC(Cc2ccccc2-c2ccncc2)(C(N)=O)C1 (centres undefined)	-17.2
CN1CCCN(Cc2nc(Cc3ccccc3)n[nH]2)CC1	-12.49
CNC(=O)NC(=O)CN(C)C(c1cccnc1)c1ccc(F)cc1F (centres undefined)	14.91
CC(C)n1nnnc1-c1ccc(NC(=O)C(C)(C)C#N)cc1F	39.59
CCC1(CO)CCN(C(=O)c2cc(COc3ccccc3F)[nH]n2)CC1	-12.83
CN(C)c1cc2c(nn1)CCN(C(=O)c1cc3c(s1)CCCC3)C2	8.452
CN(C)S(=O)(=O)NCC1CCN(Cc2ccccc2F)CC1	-0.009666

The first 4 entries again:

| structure | percent effect |
|---|---|
| `CC(C)c1ccc(O)c(C(=O)N2CCN(Cc3cscn3)CC2)c1` | 25.76 |
| `Cc1nc(CNC(=O)NCC2(C)CCCc3ccccc32)no1` (centres undefined) | 18.64 |
| `O=C(O)C(F)(F)F.[H][C@@]12CCN(Cc3c(C)noc3C)C[C@]1(C(=O)N1CCOCC1)CCO2` | 9.38 |
| `CC(C)c1ncncc1C(=O)NCCN1CCCCCC1` | 10.81 |